# For at least one compound, name, drawing or mass did not settle the structure.
# Test system: L. starkeyi
# Test: Antibiotic growth suppression on yeast synthetic complete (SC) medium agar plates
# Format: cell-based, Lipomyces starkeyi
# Details: 400 mg/l G418, SC medium agar plates, 30° C., FIG. 2
# Source text: For effective selection of transgene expression in Lipomyces strains, several antibiotics were chosen to examine their effects on Lipomyces growth on yeast synthetic complete (SC, Sunrise Science Products, San Diego, Calif.) and yeast extract-peptone-detrose (YPD) medium plates, which included phosphinothricin ammonium (basta), geneticin (G418), hygromycin B (hyg), pyrithiamine and Zeocin (Zeo). Two day old Lipomyces cells grown in YPD liquid culture were used for evaluation of the antibiotic selection on the agar plates of SC or YPD. The original cells were diluted sequentially in 1:10 ratio with dH2O for four times and 10 μl cells from original culture and each dilution were spotted onto the proper agar medium plates. The plates were incubated in 30° C. incubator for 3 days. The inhibition effects of selected antibiotics on the selected plate were documented with Nikon D300s SLR digital camera (Nikon Inc., Melville, N.Y.) or the stereomicroscope-Leica MZ16 (Leica Microsystems, Buffalo Grove, Ill.).
# About 5 to 10 colonies of 4 day old Lipomyces strains (except L. lipofer NRRL Y-11555 that required additional 4 days growth and more colonies due to its slow growth) grown on YPD medium agar plates were transferred into a 50 ml YPD liquid flask culture and grown at 30° C. and 200 rpm for 50 hrs. […]
smiles,measurement,value
CN[C@@H]1[C@@H](O)[C@@H](O[C@@H]2[C@@H](O)[C@H](O[C@H]3O[C@H]([C@@H](C)O)[C@@H](O)[C@H](O)[C@H]3N)[C@@H](N)C[C@H]2N)OC[C@]1(C)O [G418],growth selection (growth suppression) of L. starkeyi,effective

# From patent US9914932B2, “Agrobacterium-mediated transformation of lipomyces” (Battelle Memorial Institute, priority 2014, dated 2018)
